In PubChem BioAssay AID1508600 (Functional Genomics Laboratory (NCATS/FGL), 2020):
Out of some 53,000 sequences screened, about 3,700 (7%) were called active.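 The calls were made as follows: active = gene knockdowns whose robust z-score for IL-1 alpha signal is at least 2 or at most -2, so actives lie on both sides; inactive = the rest.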 Some of the results follow.

Assay: Components of the Cytosolic LPS Sensing Pathway: Gene Identification via Genome-wide siRNA Screen;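 also: robust z of the log signal after scaling to non-targeting control siRNA wells of the plate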
Conditions: RAW264.7 macrophages, IL-1a HTRF, actives lie on both sides, screened at 100 nM (by protocol), cells primed 5 h with Pam3CSK4 first
In short: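 IL-1a HTRF of supernatants after 24 hour LipidA transfection of Pam3CSK4-primed (5 hours) RAW264.7 cells, 48h post-siRNA transfection (100 nM). Scores: percent of plate negative-control median, then log-based robust z-score.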

z-score, inactive:
GGACUUCUACGUGAUGGAGTT against Pip5k1c 1.05, GGCGACAUCAUGCUAAUGATT against Fgfbp1 0.635, GGUAUACACAUGAAAACCATT against Ccdc137 -0.548, GGAUGUGCAAGAGUAUCUCTT against Fbp2 0.273, GAGGAGCUAUCAUCUCAGGTT against Lcorl 0.656, GGACGUGAAAGCUUUGGUUTT against Nrip3 0.0357, GGUAUGCAAGUGGAAUCUGTT against Selenoo 0.516, GGUGAGGUAGGUGAUGAGCTT against Tchhl1 -0.626, GCCUCCAAUAAGAUUAUAUTT against Ceacam10 -0.301, GGAAUGACAAUUGUAAACUTT against Mphosph6 -0.873, GGAGAUCACCAAAUUUGAGTT against Eef1d -0.183, GCCCAUCCCUUCCUUACGATT against Larp7 -0.506, GCUGGUUCUGUUUGUUAUUTT against Olfr1014 0.316, CGUAUUUAUGUUCUGUUGUTT against Sox8 0.814, GCAUCAUACUGACCUGAGATT against Gml2 -1.25, GGAAGACUGUAGGAUUGAGTT against Cd320 1.63, GGAAGCCUUGUGUGCACAUTT against Gng10 0.724, GGUAAACAUUGCUACUUUGTT against Mpdz 0.935, GGAAGAACAUUGUUACCUGTT against Svep1 1.1, GCCGCCACAGAAAAAGUCUTT against Dtx3l -1.47, GGAAAGGAACAAAGAAUCATT against Cpb2 -0.421, GGAUGCUUGGCUGAAUCACTT against Smyd1 1.88, GCCAGUUGGUUACUAUGGATT against Tax1bp3 -0.412, GGAGAAGAAGAAAACGUACTT against Mmp10 -0.978, GGUGAAUCGUGUUUCUGGATT against Fam193b 0.298, CCUGUUGUGCAGAUGGUUUTT against Rab28 0.0463, CGCCUUCAUUAUGGUGACGTT against Pigc -0.817, GGAAGUCAUCUCCUACUAUTT against Lix1 0.545, GGUAAAGAGUAUGACAAUCTT against Vcpip1 -1.7, GGAAAUUUGCCUAUUGAAATT against Il6 0.402, CCUAAACAUGCUGUCCCUATT against Apoc3 -0.864, GGAGCUAAUAAACUGACCUTT against Mvb12b 1.07, GGUAAUACAUUCCUCUAACTT against Zfyve16 0.991, GGUGGUGGUGGUGAUUUUGTT against Mad2l2 -0.428, CCGCGUCGGGCCACCACUGTT against Tmem158 -1.67, CGGAGCGUGCUUACCAAAATT against Rps11 0.674, GCACCACAUCUGCUAAUCUTT against Fam163a -0.713, GGAAAUGAGUAGUAGUAGUTT against Svs4 -0.995, GGCCGUUGUUGUAAAUAAATT against Polr1c 0.811, GGCCUGAAAAGACUGAUAATT against Vmn2r26 1.18, GGCCUGUUUAGUCUAUAUATT against Lztfl1 -0.126, GGACAUGAAGAUGGGAUCUTT against Cdk16 0.795, GCACAAGAUUGACAAGAGCTT against Babam1 -1.24, GGAAAGUAUCCUGACAUUATT against Lig1 -0.29, GGUAGACACCUUGUUCUUATT against Nap1l3 1.03, ACAAGGGAGGUAAAAAGAGTT against Olfr92 -0.64, GCUGUUUUUACCUAGUUAGTT against Cpsf6 0.251, GCUUACAUGACUGCCUUAUTT against Raf1 -0.137, GGGCAUGUGAAGAUGUGCGTT against Map2k3 -0.272, GUCCCAAUACUACUUUUUUTT against Vmn1r6 -0.533, CCGUGGUUAUUUAGGACAATT against Trim60 1.77, GCCGAGUGAAAGCAAUUAUTT against Scg3 0.181, CGAUAAGGAUUACAGUGAGTT against Epb41l1 -0.447, GGCUCUCAAUUUUAUUUCUTT against Ncaph2 0.894, GGAAUAUGGAGCCUGAAAATT against Nudt15 0.521, GCUUGUGAAAAAUUAUGAGTT against Ipo7 -1.5, CCAGUCUACAACUGUUCCUTT against Ammecr1l 1.59, CCCAGUAUCUCAUGUGCCATT against Aqp5 0.178, CCGACCAAGCUCUAUGUGATT against Mrgprh 0.902, CGAGUGCCAACUUUAGUUUTT against Hrh4 1.39, GGCCAUUGUUCAGGUGUUUTT against Atp6v1b1 1.95, GCCAGCUACGUUUACGACUTT against Brms1 -0.252, GGUGGUUUCAACAAGUUCCTT against Dusp7 0.765, GGAUUGAAACAGAUGAGAGTT against Gtf2e1 0.833, GCCAGUCGUAACAUAUUCUTT against Pikfyve 0.0828, GCCAAUCACAUUCCCAUGCTT against Umps -0.418, GGUUUCUUCCACAGGACCUTT against Ddx59 0.235, CCAGUCCGAUGUUUGUUAUTT against Zcchc13 -0.609, GGGUGUGUGCUAAUGAACUTT against Hnf1b 0.421, CGGUUCUAGUUGAAAUUGUTT against Pcdha3 -0.264, GGCUUUAUGUAAGCAGAAGTT against Olfr948 -0.687, GGCAAAGAUCUUAUGGAGATT against Csf3r 0.0079, GCCUGAUCCCAAUCGUGUATT against Smr2 0.288, GGACGAUGAGAGCAAUGACTT against Klk1b11 1.07, GGCAAUUGAUAUGGUUCAGTT against Magea9-ps -1.22, CCUACAGUCAAGCAGAGCCTT against Klri1 -0.241, GGAGAAAAUUCAAGUCACCTT against Olfr663 0.215, CGUUCUAGUGACAUGUACATT against Sh2d3c 1.85, GGAGGCAUACAUGACAAAATT against Cop1 0.953, GGGACUUUAUAAAGAACUGTT against Ranbp1 1.34, GGACACUCUUCCAAAUACATT against Plb1 1.67, GGGAAUCCUCAAAUAAAGCTT against Tbc1d10c -0.146, GCCGUGUCCUUGCAUAACUTT against Lypd4 -0.523, GCUCAAAUUGCACUAUCUATT against Gpt2 -0.463, CCUCCACUCACUUGUGACUTT against Slc35a4 -0.0839, CCUGAAUUACCUCAUAUAUTT against Stat5b 0.113, GGAUUUCUGGAACCUUCAUTT against Caskin2 -1.43, GGCGAGACCAUCCAUAUGUTT against Dusp19 -1.55, GGAAGAACUUUUGGUUAUUTT against Dnah14 1.35, GGACAACUAGCAGAUGGGATT against L3mbtl2 -1.1, GCCGUCACAAGAACUGAACTT against Apon -0.24, GCAGCAUACAUAAUGUAACTT against Rbm48 0.726, GGACAAACACUGUUUAUUCTT against Phf8 0.0679, GCCAUUCUAAGCUGCCAAATT against Mcat -0.000938, GGUAGAGUCUAACACGUGGTT against Ctsw 1.05, GUGACCACUUUGCCACUUGTT against Olfr1259 -0.128, GGCAUCUUGGCACUCUACUTT against Tmem179b 0.507, CCACUUUAGCUCCUUUAAGTT against Tet3 -0.438, GCUUACCAAAAGGAUAUCCTT against Zfand2b -1.94, GCAUAGCUAACUCAGCAUATT against Map2k2 1.09, GGGUCAGAAUUUUUGCUUCTT against Olfr328 -0.0364, GCUCAAUUUACAAAAGCCCTT against Pik3c2a -0.961, CCCUCAGUUGUACCAUCAATT against Olfr298 -1.93

z-score, active:
GGGUUGAAAGAGCUUGCCATT against Vmn1r198 -2.56, GGAGAUCCUCAAGGAGCAGTT against Park7 2.02, GCGGUAUGAGAAGGUUCCATT against Rap2a 3.48, GCUGGCUGUUGGAUAAGUGTT against Olfr1112 2.45
